Our source for the IC50 values is PMC9930781, “Design, synthesis, docking, and anticancer evaluations of new thiazolo[3,2-a] pyrimidines as topoisomerase II inhibitors” (Journal of Enzyme Inhibition and Medicinal Chemistry, 2023).

The structures appear in SMILES notation.

The series is described as follows: In vitro cytotoxicity on WI-38 human cell line (MTT). The series is classed as cell-based. The following applies: WI-38 normal fibroblast cells, WI-38 normal fibroblasts. The protocol: Cell line cells were provided from the American Type Culture Collection cultured in DMEM (Invitrogen/Life Technologies) with 10% FBS (Hyclone), 1% penicillin-streptomycin, and 10 μg/mL insulin (Sigma). The remainder of the chemicals and reagents were provided by either Sigma or Invitrogen. Prior to the MTT assay, plated cells were incubated for 24 h in a 96-well plate with 100 μl of the test substance per well and 100 μl of complete growth medium (cell density 1.2–1.8 × 10,000 cells/well). Cultures were transferred from the incubator and placed in a sterile work area or laminar flow hood. Then, 10% of the culture medium volume of reconstituted MTT was added, and the cultures were incubated for an additional 2 h. After that, cultures were taken out of the incubator, and the formazan crystals were dissolved using MTT solubilising solution [M-8910] in an amount equal to the volume of the original culture medium. The absorbance at 570 nm was measured. Finally, the IC50 of the test compound compared to the reference was calculated using the GraphPad Prism software.

For the compound `COc1cccc2c1C(=O)c1c(O)c3c(c(O)c1C2=O)C[C@@](O)(C(=O)CO)C[C@@H]3O[C@H]1C[C@H](N)[C@H](O)[C@H](C)O1` [Doxorubicin, reference compound], 10.4 ± 0.56 µM corresponded to half-maximal inhibition (IC50 at 24 h).

Usually IC50 stands for the concentration that gives 50% inhibition.
